Experimental data taken from article doi:10.1101/2020.06.24.169185.
Results are given in words; binding and its absence hold for the method and conditions named. Binding seen in cells or lysates may run through a third protein. Some binding calls cover weakened binding; strength is not graded here. Sequences can lack the tags named with a protein.

By UniProt entry, the sequences of proteins in these tests, tags left out.
UniProt P48432: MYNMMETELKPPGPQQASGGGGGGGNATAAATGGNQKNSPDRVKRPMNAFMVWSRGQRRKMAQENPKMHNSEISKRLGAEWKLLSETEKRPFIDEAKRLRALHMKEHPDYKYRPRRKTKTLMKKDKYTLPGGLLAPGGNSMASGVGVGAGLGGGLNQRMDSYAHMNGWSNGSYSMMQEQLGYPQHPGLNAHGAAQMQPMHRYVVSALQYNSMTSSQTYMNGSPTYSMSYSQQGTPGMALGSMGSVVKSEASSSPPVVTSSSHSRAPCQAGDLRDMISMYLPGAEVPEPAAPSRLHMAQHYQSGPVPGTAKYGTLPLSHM

Target: T1, (FLAG)3-Nanog (UniProt Q80Z64)
T1 sequence: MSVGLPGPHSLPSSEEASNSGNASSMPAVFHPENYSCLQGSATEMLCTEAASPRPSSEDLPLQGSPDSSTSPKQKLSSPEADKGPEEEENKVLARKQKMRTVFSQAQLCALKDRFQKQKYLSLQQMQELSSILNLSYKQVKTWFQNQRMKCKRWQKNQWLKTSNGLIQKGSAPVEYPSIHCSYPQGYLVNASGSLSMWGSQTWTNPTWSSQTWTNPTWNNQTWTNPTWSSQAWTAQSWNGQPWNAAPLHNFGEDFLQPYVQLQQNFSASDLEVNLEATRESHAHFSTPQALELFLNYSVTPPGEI
Assay: co-IP

binding	Substance
binds	mCherry-Sox2 (from UniProt P48432 1-319)
binds	GFP-Sox2 (from UniProt P48432 1-319)
